Experiment [1] concerns the target Disruptor of telomeric silencing 1-like (DOT1L) (human (endogenous in human articular chondrocytes)) (UniProt Q8TEK3). Kind of experiment: condition: only cells treated with the DOT1L inhibitor EPZ-5676; co-IP; as a1, but human articular chondrocytes treated with the DOT1L inhibitor EPZ-5676.
The target is the same in experiment [2]. The experiment is described as follows: co-IP; Pierce Co-Immunoprecipitation Kit; anti-DOT1L antibody immobilised on the column; 100 μg of lysate proteins of human articular chondrocytes incubated overnight at 4 °C; elution at pH 3; Western blot; cells with or without Wnt activation by LiCl. On the technique in general: Immunoblotting shows a protein as a band on a membrane.

Amino acid sequences for entries named in this document (tags omitted).
UniProt Q8TEK3: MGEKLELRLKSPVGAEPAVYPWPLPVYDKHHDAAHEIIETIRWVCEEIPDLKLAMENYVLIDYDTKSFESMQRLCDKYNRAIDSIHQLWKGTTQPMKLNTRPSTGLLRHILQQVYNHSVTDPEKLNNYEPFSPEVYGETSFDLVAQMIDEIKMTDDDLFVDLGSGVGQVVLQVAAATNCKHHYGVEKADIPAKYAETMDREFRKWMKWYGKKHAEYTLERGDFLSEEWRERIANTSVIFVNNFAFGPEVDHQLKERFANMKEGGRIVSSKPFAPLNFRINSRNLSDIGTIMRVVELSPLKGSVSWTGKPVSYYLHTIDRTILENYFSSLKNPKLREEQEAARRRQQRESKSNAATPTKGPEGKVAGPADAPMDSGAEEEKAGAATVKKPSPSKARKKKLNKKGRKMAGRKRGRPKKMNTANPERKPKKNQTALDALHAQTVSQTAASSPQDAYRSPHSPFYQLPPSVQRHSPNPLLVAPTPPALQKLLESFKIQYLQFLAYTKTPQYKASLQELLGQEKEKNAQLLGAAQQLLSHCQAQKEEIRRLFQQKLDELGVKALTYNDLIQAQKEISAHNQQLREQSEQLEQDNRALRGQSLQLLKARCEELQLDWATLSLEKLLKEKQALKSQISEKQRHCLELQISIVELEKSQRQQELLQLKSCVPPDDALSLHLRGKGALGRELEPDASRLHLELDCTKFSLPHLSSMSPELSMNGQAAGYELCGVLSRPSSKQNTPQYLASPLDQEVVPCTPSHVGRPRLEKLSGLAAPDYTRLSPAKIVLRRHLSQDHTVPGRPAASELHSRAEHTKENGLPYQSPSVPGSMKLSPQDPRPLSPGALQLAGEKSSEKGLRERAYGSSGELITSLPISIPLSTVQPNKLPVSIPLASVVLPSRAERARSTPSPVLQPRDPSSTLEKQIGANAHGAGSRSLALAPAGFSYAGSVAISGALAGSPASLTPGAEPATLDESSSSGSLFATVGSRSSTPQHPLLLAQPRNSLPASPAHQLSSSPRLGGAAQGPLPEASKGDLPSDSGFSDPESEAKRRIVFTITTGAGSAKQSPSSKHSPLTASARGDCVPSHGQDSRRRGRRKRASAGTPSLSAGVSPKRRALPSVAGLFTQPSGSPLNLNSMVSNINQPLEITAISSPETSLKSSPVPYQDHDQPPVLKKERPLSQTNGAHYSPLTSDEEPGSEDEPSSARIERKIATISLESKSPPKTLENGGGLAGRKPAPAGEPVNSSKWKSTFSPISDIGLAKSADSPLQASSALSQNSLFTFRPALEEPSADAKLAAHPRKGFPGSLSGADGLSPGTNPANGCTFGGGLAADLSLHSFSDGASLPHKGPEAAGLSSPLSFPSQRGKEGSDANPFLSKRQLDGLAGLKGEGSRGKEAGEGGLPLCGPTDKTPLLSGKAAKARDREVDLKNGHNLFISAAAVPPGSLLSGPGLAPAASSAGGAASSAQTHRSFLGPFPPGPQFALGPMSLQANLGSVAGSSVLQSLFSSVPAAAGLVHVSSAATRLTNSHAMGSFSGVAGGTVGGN
UniProt P35222: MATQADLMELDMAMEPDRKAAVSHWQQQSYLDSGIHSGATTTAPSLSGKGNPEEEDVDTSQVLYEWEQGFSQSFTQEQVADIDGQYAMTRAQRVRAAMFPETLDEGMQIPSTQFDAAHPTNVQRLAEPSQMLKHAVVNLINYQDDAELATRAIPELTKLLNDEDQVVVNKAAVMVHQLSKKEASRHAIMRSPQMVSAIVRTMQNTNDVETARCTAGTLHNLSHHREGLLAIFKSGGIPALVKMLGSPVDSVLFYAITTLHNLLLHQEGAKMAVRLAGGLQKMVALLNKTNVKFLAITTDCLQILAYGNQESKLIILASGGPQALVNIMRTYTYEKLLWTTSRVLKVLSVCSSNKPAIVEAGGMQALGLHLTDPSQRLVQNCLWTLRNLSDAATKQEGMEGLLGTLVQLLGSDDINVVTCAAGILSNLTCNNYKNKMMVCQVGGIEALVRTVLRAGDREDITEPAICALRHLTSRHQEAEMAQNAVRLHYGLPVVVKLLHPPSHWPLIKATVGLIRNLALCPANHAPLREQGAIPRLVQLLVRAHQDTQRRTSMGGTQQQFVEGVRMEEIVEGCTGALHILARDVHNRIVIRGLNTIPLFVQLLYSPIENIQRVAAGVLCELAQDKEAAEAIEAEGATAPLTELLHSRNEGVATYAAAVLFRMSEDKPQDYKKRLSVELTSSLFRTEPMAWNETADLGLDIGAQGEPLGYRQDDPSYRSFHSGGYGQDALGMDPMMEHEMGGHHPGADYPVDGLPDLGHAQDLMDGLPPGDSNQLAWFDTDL

Results are given in words; binding and its absence hold for the method and conditions named. Binding seen in cells or lysates may run through a third protein. Some results given as binding are weak or reduced against the parent protein; the word gives no strength.

For the substance β-catenin (from UniProt P35222 1-781), the binding entry in experiment [1] was “no binding”; in experiment [2], “binds”.
